Test results published in PMC13437097.
These are yes or no findings as the source states them, for the method shown. In cells and extracts the contact can be indirect. Some binding calls cover weakened binding; strength is not graded here.

The chains behind the UniProt entries cited, without tags or fusion partners.
UniProt Q9Z1E3: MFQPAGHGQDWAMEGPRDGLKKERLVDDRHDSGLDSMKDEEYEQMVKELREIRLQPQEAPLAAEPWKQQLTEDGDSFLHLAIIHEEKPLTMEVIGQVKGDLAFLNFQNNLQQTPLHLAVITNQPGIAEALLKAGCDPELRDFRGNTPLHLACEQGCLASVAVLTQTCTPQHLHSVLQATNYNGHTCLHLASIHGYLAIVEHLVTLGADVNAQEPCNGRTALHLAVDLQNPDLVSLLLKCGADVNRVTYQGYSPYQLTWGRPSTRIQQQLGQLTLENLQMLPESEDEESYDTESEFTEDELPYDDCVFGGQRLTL

Assays:
[1] = target: T1, SREBP cleavage-activating protein (SCAP) (mouse (endogenous in mouse VSMCs)) (UniProt Q6GQT6); assay: co-IP; endogenous proteins; PDGFBB/SCAPi-treated VSMCs lysed in Nonidet P40 buffer, IP antibody on protein A/G magnetic beads or agarose overnight at 4°C, western blot
T1 sequence: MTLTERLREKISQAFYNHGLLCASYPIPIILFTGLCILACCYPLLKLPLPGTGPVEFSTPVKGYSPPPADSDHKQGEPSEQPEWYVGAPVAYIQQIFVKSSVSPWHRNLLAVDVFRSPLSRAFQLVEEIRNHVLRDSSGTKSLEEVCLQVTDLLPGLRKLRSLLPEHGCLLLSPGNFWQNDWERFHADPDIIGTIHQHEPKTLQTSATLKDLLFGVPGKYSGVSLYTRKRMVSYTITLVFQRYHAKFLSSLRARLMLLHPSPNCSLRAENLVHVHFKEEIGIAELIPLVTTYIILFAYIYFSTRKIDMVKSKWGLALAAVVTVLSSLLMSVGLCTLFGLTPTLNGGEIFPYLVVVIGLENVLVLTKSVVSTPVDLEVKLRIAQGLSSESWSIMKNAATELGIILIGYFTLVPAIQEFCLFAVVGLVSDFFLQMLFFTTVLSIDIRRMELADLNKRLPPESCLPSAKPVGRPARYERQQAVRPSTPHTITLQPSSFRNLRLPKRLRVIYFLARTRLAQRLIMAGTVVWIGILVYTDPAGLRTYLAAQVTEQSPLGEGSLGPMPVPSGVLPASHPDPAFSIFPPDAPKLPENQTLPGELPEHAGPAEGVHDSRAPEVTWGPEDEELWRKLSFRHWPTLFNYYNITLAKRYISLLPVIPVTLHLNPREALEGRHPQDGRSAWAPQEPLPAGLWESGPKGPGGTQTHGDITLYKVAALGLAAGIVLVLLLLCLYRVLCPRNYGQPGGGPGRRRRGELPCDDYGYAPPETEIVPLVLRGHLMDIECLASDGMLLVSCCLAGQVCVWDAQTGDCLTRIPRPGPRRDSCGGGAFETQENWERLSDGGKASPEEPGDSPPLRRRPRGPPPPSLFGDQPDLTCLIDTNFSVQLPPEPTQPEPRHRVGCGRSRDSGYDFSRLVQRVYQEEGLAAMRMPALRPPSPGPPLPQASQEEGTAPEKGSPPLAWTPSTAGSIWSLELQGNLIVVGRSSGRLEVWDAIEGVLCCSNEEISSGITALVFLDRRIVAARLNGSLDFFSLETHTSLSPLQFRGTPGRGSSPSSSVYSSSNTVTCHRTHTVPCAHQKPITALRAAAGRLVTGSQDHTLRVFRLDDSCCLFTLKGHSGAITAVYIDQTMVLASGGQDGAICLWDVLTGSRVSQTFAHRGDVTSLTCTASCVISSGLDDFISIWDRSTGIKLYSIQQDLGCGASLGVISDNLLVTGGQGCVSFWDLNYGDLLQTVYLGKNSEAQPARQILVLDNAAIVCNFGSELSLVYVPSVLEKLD

[2] = target: IκBα (mouse (endogenous in mouse VSMCs)) (UniProt Q9Z1E3); assay: as above
[3] = target: T1, SREBP cleavage-activating protein (SCAP) (mouse (endogenous in mouse VSMCs)); assay: proximity ligation; Duolink PLA on fixed, permeabilised VSMCs (with or without PDGFBB), primary antibodies 4°C 8-12 h
[4] = target: IκBα (mouse (endogenous in mouse VSMCs)) (UniProt Q9Z1E3); assay: as above

Measured: binding

B1: Tripartite motif containing 27 (Trim27) (protein, UniProt Q62158 1-513)
chain: MASGSVAECLQQETTCPVCLQYFVEPMMLDCGHNICCACLARCWGAAETNVSCPQCRETFPQRHMRPNRHLANVTQLVKQLRTERPSGPGGEMGVCEKHREPLKLYCEQDQMPICVVCDRSREHRGHSVLPLEEAVEGFKEQIQNRLDHLRRVKDLKKRRRAQGEQARAELLSLTQMEREKIVWEFEQLYHSLKEHEYRLLARLEELDLAIYNSINGAITQFSCNISHLSGLIAQLEEKQQQPTRELLQDIGDTLSRAERIRIPEPWITPPDLQEKIHIFAQKCLFLTESLKQFTEKMQSDMEKIQELREAQLYSVDVTLDPDTAYPSLILSDNLRQVRYSYLQQDLPDNPERFNLFPCVLGSPCFIAGRHYWEVEVGDKAKWTIGVCEDSVCRKGGVTSAPQNGFWAVSLWYGKEYWALTSPMTALPLRTPLQRVGIFLDYDAGEVSFYNVTERCHTFTFSHATFCGPVRPYFSLSYSGGKSAAPLIICPMSGIDGFSGHVGNHGHSMETSP
binds: [1] | [2] | [3] | [4]
